Data as given in PubChem BioAssay AID1259308 (NCATS, 2017)

Aim: 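Candidate targets for better recombinant protein yield in mammalian cells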 (primary screen)
System: human HEK293 embryonic kidney cells stably expressing firefly luciferase (HEK-CMV-Luc2-Hygro)
Reagent: single siRNA against human genes, 0.8 pmol siRNA per well
Timing: 72 h
Measurement: 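Reporter luminescence and viable-cell signal on separate replicate plates, given as percent of non-targeting control and median/MAD z-scores, plus per-cell luciferase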
Direction: total luciferase, z-score: higher = more reporter protein produced
Hit rule: 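Active when the median/MAD z-score for overall luciferase is greater than 3; a gene was taken forward for validation with new siRNAs if at least two of its three siRNAs passed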
Meaning of the calls: active = raised luciferase; inactive = no rise
Here is one part, drawn at random, of about 59,000 deposited reagents. In the full data, about 1,510 (2.6%) are marked active. 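Calls use total luciferase alone and ignore viability, so some active siRNAs may act by altering cell number.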 Entries without a mark were called inactive. The numbers tell different reagents against one gene apart. Not all columns of the deposit are shown.

PDPN (podoplanin) #1 | total luciferase, z-score: 1.26
PDPN (podoplanin) #2 | total luciferase, z-score: -0.502
PDPN (podoplanin) #3 | total luciferase, z-score: 0.996
TANC2 #1 | total luciferase, z-score: 0.679
TANC2 #2 | total luciferase, z-score: -0.312
TANC2 #3 | total luciferase, z-score: 1.98
LOC390282 #1 | total luciferase, z-score: 1.59
LOC390282 #2 | total luciferase, z-score: -0.83
LOC390282 #3 | total luciferase, z-score: 0.323
ZNF449 (zinc finger protein 449) #1 | total luciferase, z-score: 0.093
ZNF449 (zinc finger protein 449) #2 | total luciferase, z-score: -0.551
ZNF449 (zinc finger protein 449) #3 | total luciferase, z-score: -0.168
